Test [1] concerns the target Tim44 with C-terminal di-HA tag (Tim44-HA) (Trichomonas vaginalis) (UniProt A2F7V1). As to the kind of experiment: co-IP; hydrogenosomes of strains co-expressing an HA-tagged bait and TvTim22-V5, solubilised with 1% Triton X-100 at 1 mg/ml protein; anti-HA Dynabeads; immunoblot with anti-HA, anti-V5 and anti-Sam50.
In test [2] the target is T1, AAC1 (Hmp31) with C-terminal di-HA tag (AAC1-HA) (Trichomonas vaginalis).
T1 sequence: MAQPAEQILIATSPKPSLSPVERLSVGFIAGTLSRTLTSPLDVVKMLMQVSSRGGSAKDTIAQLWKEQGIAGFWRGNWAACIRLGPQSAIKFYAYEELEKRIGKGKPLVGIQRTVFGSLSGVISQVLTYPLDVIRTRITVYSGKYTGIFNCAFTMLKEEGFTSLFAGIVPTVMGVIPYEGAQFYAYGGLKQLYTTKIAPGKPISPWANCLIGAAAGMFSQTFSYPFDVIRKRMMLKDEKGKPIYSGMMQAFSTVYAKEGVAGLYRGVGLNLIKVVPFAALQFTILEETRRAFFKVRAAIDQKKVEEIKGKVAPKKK
The description is as above.

Chains of the proteins cited; added tags and fusions are not shown.
UniProt A2F7V1: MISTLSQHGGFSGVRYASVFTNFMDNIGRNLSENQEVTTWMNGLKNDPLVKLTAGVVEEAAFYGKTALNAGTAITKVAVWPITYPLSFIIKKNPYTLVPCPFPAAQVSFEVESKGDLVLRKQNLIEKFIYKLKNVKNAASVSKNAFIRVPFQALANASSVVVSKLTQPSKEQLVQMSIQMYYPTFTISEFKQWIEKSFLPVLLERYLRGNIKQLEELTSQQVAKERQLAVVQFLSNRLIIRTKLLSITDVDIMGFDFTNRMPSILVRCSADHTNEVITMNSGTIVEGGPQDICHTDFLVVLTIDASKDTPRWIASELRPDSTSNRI
UniProt A2DIG2: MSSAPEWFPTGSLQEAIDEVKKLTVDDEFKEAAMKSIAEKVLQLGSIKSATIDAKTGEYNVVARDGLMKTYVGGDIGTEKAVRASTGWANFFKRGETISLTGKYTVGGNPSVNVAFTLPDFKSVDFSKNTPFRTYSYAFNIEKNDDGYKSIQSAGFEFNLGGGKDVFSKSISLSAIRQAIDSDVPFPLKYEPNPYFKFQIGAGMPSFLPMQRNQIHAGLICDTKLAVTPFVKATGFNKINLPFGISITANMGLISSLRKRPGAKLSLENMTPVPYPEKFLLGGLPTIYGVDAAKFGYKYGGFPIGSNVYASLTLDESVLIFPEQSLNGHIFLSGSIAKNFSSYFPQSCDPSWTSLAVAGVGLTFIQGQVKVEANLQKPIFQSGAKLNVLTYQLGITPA
UniProt A2DDM1: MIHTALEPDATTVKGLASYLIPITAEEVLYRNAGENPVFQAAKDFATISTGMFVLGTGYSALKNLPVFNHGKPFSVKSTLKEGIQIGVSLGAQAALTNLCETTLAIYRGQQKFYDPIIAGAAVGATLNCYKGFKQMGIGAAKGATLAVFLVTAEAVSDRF

Drawing on publication PMC11145794, this text covers binding for two substances.

Results are given in words; binding and its absence hold for the method and conditions named. In cells and extracts the contact can be indirect. Some results given as binding are weak or reduced against the parent protein; the word gives no strength. For part of these data: Sequences can lack the tags named with a protein.

In the case of “Sam50 (endogenous) (from UniProt A2DIG2 1-398)”, the binding result in test [1] is “no binding”.

With “TvTim22 with C-terminal di-V5 tag (TvTim22-V5) (from UniProt A2DDM1 1-160)”, the binding result in test [2] and in test [1] was “binds” in each case.
